Earlier results in patent US20050004118A1, “Prodrugs of non-steroidal anti-inflammatory and carboxylic acid containing compounds” (priority 2000, published 2005).
Some results were stated once for a whole list of compounds, not compound by compound.

Details: postmarketing surveillance and short-term endoscopic studies; cited from earlier work

Compound	incidence of gastroduodenal erosive injury [%]
CCc1cccc2c3c([nH]c12)C(CC)(CC(=O)O)OCC3 (centres unmarked) [etodolac]	< 1
COc1ccc2cc(CCC(C)=O)ccc2c1 [nabumetone]	< 1
